Here are results for 4 molecules from publication doi:10.1101/2021.12.21.473728.

Chains of the proteins cited; added tags and fusions are not shown.
UniProt P40356: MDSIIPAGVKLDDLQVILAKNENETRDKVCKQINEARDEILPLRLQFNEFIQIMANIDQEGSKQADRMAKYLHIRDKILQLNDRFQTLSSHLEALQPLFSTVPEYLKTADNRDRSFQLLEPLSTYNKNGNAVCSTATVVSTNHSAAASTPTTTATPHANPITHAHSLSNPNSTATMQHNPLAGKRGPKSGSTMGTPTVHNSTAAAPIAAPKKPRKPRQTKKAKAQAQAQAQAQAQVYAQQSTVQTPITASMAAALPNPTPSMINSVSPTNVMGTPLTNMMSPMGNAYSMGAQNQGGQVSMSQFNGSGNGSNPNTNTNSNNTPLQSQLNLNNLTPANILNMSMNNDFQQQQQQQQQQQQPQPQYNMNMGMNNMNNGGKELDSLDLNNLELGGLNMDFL
UniProt P19659: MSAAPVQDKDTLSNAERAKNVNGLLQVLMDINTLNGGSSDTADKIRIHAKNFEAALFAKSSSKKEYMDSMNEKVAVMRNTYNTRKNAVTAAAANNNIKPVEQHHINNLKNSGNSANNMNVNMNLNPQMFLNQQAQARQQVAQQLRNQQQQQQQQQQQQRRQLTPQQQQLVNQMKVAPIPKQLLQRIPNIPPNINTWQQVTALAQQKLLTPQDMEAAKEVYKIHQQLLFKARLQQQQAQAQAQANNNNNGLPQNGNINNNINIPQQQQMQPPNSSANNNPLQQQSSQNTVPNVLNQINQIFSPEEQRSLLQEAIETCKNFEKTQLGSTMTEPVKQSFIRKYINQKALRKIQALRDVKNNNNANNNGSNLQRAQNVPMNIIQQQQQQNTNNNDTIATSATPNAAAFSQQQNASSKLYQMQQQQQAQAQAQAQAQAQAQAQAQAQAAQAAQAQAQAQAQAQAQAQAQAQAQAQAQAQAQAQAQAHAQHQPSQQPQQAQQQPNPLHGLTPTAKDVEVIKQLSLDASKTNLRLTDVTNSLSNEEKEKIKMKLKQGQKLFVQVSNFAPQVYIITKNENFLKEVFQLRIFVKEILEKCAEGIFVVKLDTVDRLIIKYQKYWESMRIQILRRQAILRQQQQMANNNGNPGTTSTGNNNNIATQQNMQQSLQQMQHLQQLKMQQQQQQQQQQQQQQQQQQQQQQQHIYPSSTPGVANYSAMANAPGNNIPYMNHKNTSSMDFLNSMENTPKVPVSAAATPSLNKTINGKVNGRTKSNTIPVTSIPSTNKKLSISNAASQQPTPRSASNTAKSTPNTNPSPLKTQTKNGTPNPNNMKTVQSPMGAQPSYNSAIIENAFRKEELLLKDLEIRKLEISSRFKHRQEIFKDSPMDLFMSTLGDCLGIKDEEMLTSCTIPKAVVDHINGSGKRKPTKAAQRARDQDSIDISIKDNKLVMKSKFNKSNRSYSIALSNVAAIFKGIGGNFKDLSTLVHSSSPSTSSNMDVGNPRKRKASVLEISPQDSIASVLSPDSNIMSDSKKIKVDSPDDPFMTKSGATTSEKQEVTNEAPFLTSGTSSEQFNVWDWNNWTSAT
UniProt P32585: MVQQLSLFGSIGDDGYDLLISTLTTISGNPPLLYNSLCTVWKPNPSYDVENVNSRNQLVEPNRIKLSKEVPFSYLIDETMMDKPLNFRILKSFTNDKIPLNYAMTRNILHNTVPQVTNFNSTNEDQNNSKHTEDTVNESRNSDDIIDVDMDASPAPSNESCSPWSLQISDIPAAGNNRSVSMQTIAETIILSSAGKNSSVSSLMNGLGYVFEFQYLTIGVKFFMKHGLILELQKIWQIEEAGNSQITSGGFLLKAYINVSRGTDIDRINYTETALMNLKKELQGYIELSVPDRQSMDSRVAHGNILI
UniProt Q12124: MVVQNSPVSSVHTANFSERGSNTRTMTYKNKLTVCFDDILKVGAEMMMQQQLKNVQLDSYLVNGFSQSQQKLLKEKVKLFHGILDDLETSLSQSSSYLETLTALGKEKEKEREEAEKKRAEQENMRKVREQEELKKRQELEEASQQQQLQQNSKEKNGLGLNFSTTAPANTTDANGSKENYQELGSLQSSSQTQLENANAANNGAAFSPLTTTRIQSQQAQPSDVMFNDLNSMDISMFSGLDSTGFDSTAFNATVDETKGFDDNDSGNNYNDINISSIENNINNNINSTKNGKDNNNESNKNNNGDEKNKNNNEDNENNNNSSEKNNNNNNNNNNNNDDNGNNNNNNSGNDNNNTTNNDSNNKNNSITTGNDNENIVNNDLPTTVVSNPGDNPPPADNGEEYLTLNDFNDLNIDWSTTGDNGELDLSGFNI

No constants are given. Whether binding was seen depends on the method and setting. In cells and extracts the contact can be indirect. Some entries that bind do so weakly or less than the wild type.

Common to all, as to assay: co-IP
For assay [1], the target named is Med3 (S. cerevisiae (endogenous in BY4705 derivatives)) (UniProt P40356).
Assay [2] addresses Med17 (S. cerevisiae (endogenous in BY4705 derivatives)) (UniProt P32569).
Assay [3] concerns the target T1, Med17 (S. cerevisiae (endogenous in BY4705 derivatives)), P32569.
T1 chain: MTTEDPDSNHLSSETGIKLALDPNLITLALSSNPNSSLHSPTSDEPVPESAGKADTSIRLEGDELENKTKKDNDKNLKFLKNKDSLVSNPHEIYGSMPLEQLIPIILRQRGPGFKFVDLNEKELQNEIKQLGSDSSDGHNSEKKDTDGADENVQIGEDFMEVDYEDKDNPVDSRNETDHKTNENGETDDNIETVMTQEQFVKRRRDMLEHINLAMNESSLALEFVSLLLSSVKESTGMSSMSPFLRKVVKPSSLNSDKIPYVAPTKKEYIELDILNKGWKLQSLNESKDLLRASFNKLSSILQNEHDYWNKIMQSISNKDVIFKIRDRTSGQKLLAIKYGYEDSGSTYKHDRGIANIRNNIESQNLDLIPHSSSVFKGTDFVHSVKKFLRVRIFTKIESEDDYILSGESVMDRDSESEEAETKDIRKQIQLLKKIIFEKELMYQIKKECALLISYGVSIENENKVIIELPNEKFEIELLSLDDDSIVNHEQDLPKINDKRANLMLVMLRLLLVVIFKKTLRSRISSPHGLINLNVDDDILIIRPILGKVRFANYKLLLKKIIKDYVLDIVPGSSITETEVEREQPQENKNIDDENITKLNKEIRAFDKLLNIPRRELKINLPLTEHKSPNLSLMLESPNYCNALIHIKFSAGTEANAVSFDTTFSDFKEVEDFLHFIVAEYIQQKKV
The note with it: remark: other sources report otherwise.

Turning to Med15 (from UniProt P19659 1-1081), the binding result in assay [1] is on record as “binds”. Regarding Med18 (from UniProt P32585 1-307), the binding entry in assay [2] is listed as “binds”. With Med2 (from UniProt Q12124 1-431), the binding result in assay [1] is “binds”.

B1: Med1, Q12321 1-566 (protein)
chain: MVEGDSYVETLDSMIELFKDYKPGSITLENITRLCQTLGLESFTEELSNELSRLSTASKIIVIDVDYNKKQDRIQDVKLVLASNFDNFDYFNQRDGEHEKSNILLNSLTKYPDLKAFHNNLKFLYLLDAYSHIESDSTSHNNGSSDKSLDSSNASFNNQGKLDLFKYFTELSHYIRQCFQDNCCDFKVRTNLNDKFGIYILTQGINGKEVPLAKIYLEENKSDSQYRFYEYIYSQETKSWINESAENFSNGISLVMEIVANAKESNYTDLIWFPEDFISPELIIDKVTCSSNSSSSPPIIDLFSNNNYNSRIQLMNDFTTKLINIKKFDISNDNLDLISEILKWVQWSRIVLQNVFKLVSTPSSNSNSSELEPDYQAPFSTSTKDKNSSTSNTEPIPRSNRHGSVVEASRRRRSSTNKSKRPSITEAMMLKEEGLQQFNLHEILSEPAIEEENGDSIKEHSTTMDGANDLGFTASVSNQENAGTDIVMEDHGVLQGTSQNYGTATADDADIEMKDVSSKPSKPESSVLQLIVSEDHIILDTISECNLYDDVKCWSKFIEKFQDIVS
Take B1: the binding entry in assay [3] was “binds”.
